# Data reported in the supplement of paper PMC3334620.
# The full ranking holds about 33,000 sequences; the median of “E-score (-0.5 to 0.5)” is about -0.0059, and the highest 2% start at about 0.26. The list shows a part of the results.
# Molecular target: T1, Cin5 (UniProt P40917)
# T1 sequence: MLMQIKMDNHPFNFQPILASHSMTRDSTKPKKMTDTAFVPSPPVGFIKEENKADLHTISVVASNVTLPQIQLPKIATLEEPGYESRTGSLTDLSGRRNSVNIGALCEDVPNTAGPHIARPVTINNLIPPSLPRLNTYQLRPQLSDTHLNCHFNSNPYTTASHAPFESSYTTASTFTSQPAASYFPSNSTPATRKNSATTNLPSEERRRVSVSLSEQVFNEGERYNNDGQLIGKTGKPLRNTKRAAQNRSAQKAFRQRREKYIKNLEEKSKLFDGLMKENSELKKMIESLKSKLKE
# Assay: PBM E-score (8-mer binding enrichment) (E-score (-0.5 to 0.5)); higher = stronger / more preferred TF binding
# Settings: protein concentration: 100 nM; construct: GST-full length
# In short: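 Using PURExpress in vitro transcription/translation, GST-tagged yeast transcription factors were made in full-length or DNA-binding-domain form. These were applied at about 100-200 nM to double-stranded universal all-10-mer Agilent arrays, and bound protein was detected with fluorescent anti-GST. Scans were normalised with masliner before the Universal PBM Analysis Suite assigned E-scores to ungapped eight-base words pooled with their reverse complements.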
row,Sequence,PBM E-score
1,AGCGTTTG,-0.128
2,AGCAGCAA,-0.0541
3,ACAGGGGT,-0.208
4,CCAACCAC,0.116
5,AACTCACA,0.149
6,TCGGGCCA,-0.183
7,ACTCTTTG,-0.0462
8,ACCCTTAA,-0.112
9,ACTACCCT,-0.0182
10,GACTCCAC,-0.187
11,AGCTGCAC,0.0426
12,CTAAGAAA,-0.0357
13,ACCATAAC,0.074
14,AAAAGGAT,0.0256
15,GACGTCAC,0.00326
16,CACGTAAA,-0.0217
17,CCTCTGTC,-0.0833
18,ACTTACAT,0.201
19,CCCGCTAC,-0.089
20,AGAAACAC,0.0288
21,AGATAGGA,-0.122
22,ACATCGAA,0.136
23,AGGAGTAG,-0.0454
24,CAACAAGA,0.0827
25,AACTCCAA,0.134

row,Sequence,PBM E-score
1,CCACCTAC,-0.164
2,CATAAAAG,-0.0651
3,AGGACCAA,-0.0567
4,ACTGGCTA,-0.0993
5,CTCAGTAC,0.0422
6,AGCGTGCC,-0.203
7,GAGTTCCA,-0.0283
8,CGCCCCAA,0.173
9,GCTGTCCC,-0.145
10,CGTTTCTC,-0.147
11,GTATGTAA,0.242
12,GACCGGTC,-0.0542
13,GACCTTCC,-0.147
14,ACACGGAC,-0.132
15,CACAATTA,0.0753
16,CCCGTAAA,0.0279
17,CATATTAG,0.16
18,AGGCTCCA,-0.178
19,ACATGGGA,0.115
20,GGCTTGTA,-0.122
21,ATTCCTGG,0.032
22,GCGGCCAA,-0.164
23,ATTACTAG,0.105
24,GAAGGGGA,-0.0811
25,TACCCAGA,0.12

row,Sequence,PBM E-score
1,CCGATCAG,-0.0546
2,CACGCGTG,0.102
3,ATCGGGAA,0.141
4,CGTAGTTA,0.0498
5,AACCGTAC,-0.255
6,CCCCGTTC,-0.0834
7,CACCGAAC,-0.174
8,ACGTTAAT,0.167
9,GTAATCAC,0.321
10,AGCGCACA,0.0716
11,GATAAGCC,0.0299
12,CCGCTCCA,-0.202
13,ACCCACCG,0.0791
14,ATTCCACC,0.15
15,AAGGGAAT,0.0586
16,ACTGACAC,-0.0491
17,GAGCCGAA,-0.0371
18,TGGCGTAA,-0.0336
19,CCTCAAGG,-0.254
20,AGGCGTGA,-0.232
21,CAAGGCAG,-0.00243
22,AAAGAGGC,-0.211
23,ATGCAGGC,-0.0288
24,CGATCCAC,-0.103
25,TTCCACAA,0.19

row,Sequence,PBM E-score
1,TACAGCCA,-0.0547
2,CGTAATAA,0.239
3,ACGAGGAC,-0.0789
4,CGCACTAA,0.086
5,CGTATCGC,-0.0212
6,ATCGAAGA,0.13
7,GCCCCCAC,-0.461
8,CTCCTCTC,-0.262
9,AAGTACCG,0.0523
10,CACGCCTG,-0.121
11,CTGAACGA,-0.204
12,ATGCCGTA,0.119
13,CGCATTGC,0.0664
14,CGGATCAC,0.112
15,GCCTTACA,-0.253
16,CCCTTTAA,-0.0752
17,TATACGGA,-0.0482
18,AGACAGCC,-0.174
19,TATGCTAA,0.0753
20,CCACCGTC,-0.204
21,AAGTTCTC,-0.0732
22,AGTAAGCG,0.354
23,AAGTTTGT,0.0352
24,CCATCCGC,0.135
25,GTCACATA,0.0519

row,Sequence,PBM E-score
1,AACCGATC,-0.0743
2,CTCCGGCC,-0.371
3,CACACACC,0.00822
4,CATCTCAC,0.0306
5,CTCTCTCA,-0.168
6,ACATCGTG,0.0375
7,AAGGATTG,-0.0117
8,AGCACCAA,0.0787
9,CGCCGTGC,-0.0852
10,TCGATCGA,0.211
11,ACATTTAG,-0.132
12,AATCCTGG,0.00803
13,GATAGGTA,0.157
14,GCTCGCGA,0.119
15,AAACCCTT,0.0723
16,CATCGCCA,0.0641
17,GATATCTA,0.066
18,ACGATGTC,-0.0703
19,AGCGTTAT,-0.0862
20,CCAAGATA,-0.00856
21,AACTGGCC,0.0999
22,CATGCCAG,-0.054
23,CGCTTAGA,-0.0919
24,GTTCTCTA,-0.0729
25,GAAGGTGC,-0.155

# Part of the list above, tab-delimited:
row	Sequence	PBM E-score
6	CCCCGTTC	-0.0834
7	CACCGAAC	-0.174
8	ACGTTAAT	0.167
9	GTAATCAC	0.321
10	AGCGCACA	0.0716
11	GATAAGCC	0.0299
12	CCGCTCCA	-0.202
13	ACCCACCG	0.0791
14	ATTCCACC	0.15
15	AAGGGAAT	0.0586
16	ACTGACAC	-0.0491
17	GAGCCGAA	-0.0371
18	TGGCGTAA	-0.0336
19	CCTCAAGG	-0.254
20	AGGCGTGA	-0.232
21	CAAGGCAG	-0.00243
22	AAAGAGGC	-0.211
23	ATGCAGGC	-0.0288
24	CGATCCAC	-0.103
1	TACAGCCA	-0.0547
2	CGTAATAA	0.239
3	ACGAGGAC	-0.0789
4	CGCACTAA	0.086
5	CGTATCGC	-0.0212
6	ATCGAAGA	0.13
7	GCCCCCAC	-0.461
9	AAGTACCG	0.0523
10	CACGCCTG	-0.121
11	CTGAACGA	-0.204
12	ATGCCGTA	0.119
13	CGCATTGC	0.0664
14	CGGATCAC	0.112
15	GCCTTACA	-0.253
16	CCCTTTAA	-0.0752
17	TATACGGA	-0.0482
18	AGACAGCC	-0.174
19	TATGCTAA	0.0753
20	CCACCGTC	-0.204
21	AAGTTCTC	-0.0732
22	AGTAAGCG	0.354
23	AAGTTTGT	0.0352
24	CCATCCGC	0.135
25	GTCACATA	0.0519
1	AACCGATC	-0.0743
2	CTCCGGCC	-0.371
3	CACACACC	0.00822
5	CTCTCTCA	-0.168
6	ACATCGTG	0.0375
7	AAGGATTG	-0.0117
8	AGCACCAA	0.0787
9	CGCCGTGC	-0.0852
10	TCGATCGA	0.211
11	ACATTTAG	-0.132
12	AATCCTGG	0.00803
13	GATAGGTA	0.157
14	GCTCGCGA	0.119
15	AAACCCTT	0.0723
16	CATCGCCA	0.0641
17	GATATCTA	0.066
18	ACGATGTC	-0.0703
19	AGCGTTAT	-0.0862
20	CCAAGATA	-0.00856
21	AACTGGCC	0.0999
22	CATGCCAG	-0.054
23	CGCTTAGA	-0.0919
24	GTTCTCTA	-0.0729
25	GAAGGTGC	-0.155

# The listing continues.

row,Sequence,PBM E-score
1,GATACAGA,0.101
2,CGGTTGCA,-0.146
3,ACGAATCG,0.0934
4,CGGAGCCG,-0.142
5,AGCGAACG,-0.137
6,CGTTTCTA,-0.00786
7,ATTTCGCC,0.102
8,GATACCTA,0.223
9,ATCATGAG,0.085
10,AGCTACAC,0.11
11,CTTCTCGC,0.114
12,CGGCTGAC,0.174
13,TACTAGCA,0.135
14,AGTGTTTG,0.191
15,TCCAGTAA,0.0264
16,CCCACGAA,0.0179
17,CTTAGGAC,-0.175
18,CCCATGCC,-0.109
19,AACACCTA,-0.0786
20,CACGCAAC,0.124
21,ACGGTCAC,-0.139
22,CAGCAGCC,0.0402
23,CGTACCAC,-0.0467
24,GCTACCCC,-0.317
25,CAGAAGGG,-0.275

row,Sequence,PBM E-score
1,CCGCCAGA,-0.0995
2,GACACACA,0.0261
3,ATCCGCCC,0.0183
4,ACGCCACG,-0.212
5,CGCGCGAC,0.0018
6,ACACGCAC,-0.0188
7,AAAGGGGA,-0.194
8,TCCGAACA,0.0179
9,ACACTGTG,0.103
10,AGTGACCA,0.0812
11,GTGAACAC,-0.0689
12,ATATATTA,0.272
13,GGCGCGAA,0.0326
14,AGTAAGTG,0.0758
15,TCTTAGCA,-0.112
16,TCGTTAGA,-0.194
17,CTGTTGGC,-0.174
18,ACGAGTGA,-0.0249
19,AGTTCTAT,0.012
20,ATGCGGAG,-0.151
21,ACAACATG,0.208
22,ACACCTAT,0.0417
23,TGTTAGAA,0.0325
24,GTAACTTA,0.157
25,GGTTTCAC,0.102

row,Sequence,PBM E-score
1,GCCTCTCA,-0.239
2,CATCCCGA,0.0504
3,GTATAAAA,0.26
4,GGCTGGGA,-0.14
5,CCCAGGCA,-0.158
6,AGACGTAC,-0.0439
7,AACCTCTC,-0.0766
8,AACGGCCG,0.112
9,CGATACTC,0.101
10,CCGTGAGG,-0.21
11,GATTCGCA,0.126
12,CAATCATG,0.094
13,ACCATGCA,0.155
14,AGTTCTGG,0.042
15,GCGAGACA,-0.138
16,CAATCATC,0.0884
17,AAGCCCAC,-0.0949
18,CTTCGCCA,-0.137
19,ACCGCCAT,0.139
20,ACGTCCCG,-0.067
21,CAAAATCG,0.093
22,GATAGGCC,-0.0666
23,GATTACCC,0.192
24,GACCCGAA,-0.0898
25,CCTAAGGC,-0.348

row,Sequence,PBM E-score
1,CTGGCAGC,-0.338
2,ACGCGTCC,-0.152
3,AGCATTTA,-0.0377
4,CGGATCCC,-0.122
5,AGACTTGC,-0.271
6,ACAATGGC,0.0611
7,GTACTGAA,0.212
8,CTGGCCGA,-0.211
9,AGGAGGTG,-0.309
10,ACAAGCTG,-0.0596
11,CGAGATCC,0.00893
12,CATGGTCA,0.222
13,GCGTAGCC,-0.158
14,CACCTAAA,-0.063
15,AAGCAGTA,0.119
16,ATCGAGAA,0.226
17,AGAAAGGG,-0.164
18,GGCTAATA,0.137
19,CAAGCGCG,-0.00219
